Screening data, single-dose tests

Protein sequences, listed by entry. Tags and fused reporters are not part of them. Residues count along the entry.
UniProt Q8IDJ8, 1-583: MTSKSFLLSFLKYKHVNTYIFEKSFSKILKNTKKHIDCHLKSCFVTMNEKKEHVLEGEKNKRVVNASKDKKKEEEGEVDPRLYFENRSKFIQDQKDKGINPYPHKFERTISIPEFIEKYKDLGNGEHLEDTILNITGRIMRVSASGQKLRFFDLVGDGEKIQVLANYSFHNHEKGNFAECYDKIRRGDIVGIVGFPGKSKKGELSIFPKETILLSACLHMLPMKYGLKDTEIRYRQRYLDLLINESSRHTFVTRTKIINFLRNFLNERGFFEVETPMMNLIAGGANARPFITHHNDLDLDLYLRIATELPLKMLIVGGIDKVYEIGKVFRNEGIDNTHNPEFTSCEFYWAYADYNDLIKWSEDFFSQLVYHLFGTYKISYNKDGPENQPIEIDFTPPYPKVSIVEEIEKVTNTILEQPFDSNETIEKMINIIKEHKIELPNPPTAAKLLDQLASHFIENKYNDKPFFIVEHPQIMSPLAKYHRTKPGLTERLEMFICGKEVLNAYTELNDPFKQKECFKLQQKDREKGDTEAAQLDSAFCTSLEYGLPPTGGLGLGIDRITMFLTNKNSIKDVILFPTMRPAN

Toxoplasma: 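Assay of Toxoplasma gondii numbers, read through their beta-galactosidase reporter with a colour substrate. Concentration: 10 µM. Higher reads as fewer parasites (inferred from which compounds were picked for retests). About 67,000 compounds were tested under these conditions; 0.38% (about 260) showed 50% or more at least once.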
T. brucei: 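Whole-parasite assay of Trypanosoma brucei over 72 hours; the read-out is not stated. Concentration: 30 µM. Higher reads as stronger inhibition (inferred: compounds with an IC50 in retests scored well above the rest). Values scatter widely below zero; nearly all retest evidence comes from the higher of the two concentrations used. Size under these conditions: about 64,000 compounds, about 940 of them at 50% or above in at least one test.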
Leishmania in macrophages: 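Cell assay of Leishmania donovani living inside macrophages; the read-out is not stated. Concentration: 30 µM. The record gives no direction; compounds that gave an IC50 in retests scored well above the rest, so higher reads as stronger inhibition. About 69,000 compounds were tested under these conditions; 1.5% (about 1,000) showed 50% or more at least once.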
PfKRS1: 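Lysine-tRNA ligase, Plasmodium falciparum 3D7 (UniProt Q8IDJ8). Enzyme assay of the cytosolic lysyl-tRNA synthetase in 384-well plates, read by luminescence. Compounds at 30 µM. Direction is inferred from only a few compounds that gave an IC50; most scored high, so higher reads as stronger inhibition. About 69,000 compounds were tested under these conditions; 0.071% (about 49) showed 50% or more at least once.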

Each number is a percent effect as filed. The record does not define 0% and 100%; most values in the screen are far below 50% and negative numbers occur (in some assays of this library far below -100). This is an unselected part of the compounds tested. A dash means the value is not listed here; it may have been measured.

| # | SMILES | Toxoplasma | T. brucei | Leishmania in macrophages | PfKRS1 |
|---|---|---|---|---|---|
| 1 | `CNCc1cc(F)ccc1Oc1ccc(F)cc1F` | 21.26 | -16.02 | 14.21 | 4.796 |
| 2 | `COc1ccc2c(c1)CCCN(C(=O)NCC1CCCO1)C2` (configuration not stated) | -3.141 | -4.98 | 6.687 | 2.152 |
| 3 | `c1ccc(Cn2ccnc2CN2CCCC2c2noc(C3CC3)n2)cc1` (configuration not stated) | 10.29 | -16.01 | -25.52 | 12.43 |
| 4 | `CC(C)c1noc(CCC(=O)NCC2CC2)n1` | -14.97 | -5.476 | -18.61 | 1.069 |
| 5 | `CCS(=O)(=O)N1Cc2nccn2CC(Cn2cncn2)C1` (configuration not stated) | 13.25 | -52.63 | 17.11 | 6.188 |
| 6 | `O=C1CCC2(CCNCC2)CN1CCCOc1cccnc1` | 14.79 | -19.04 | 37.85 | 0.03263 |
| 7 | `CCNc1ncc(C(=O)NC2CCOCC2)cn1` | -35.94 | -29.04 | 16.75 | 2.23 |
| 8 | `CN1CCN(CC2CN(CC3CC3)Cc3nccn3C2)CC1` (configuration not stated) | - | - | - | 1.513 |
| 9 | `CCn1ccnc1CN1CCN(CC(=O)NC2CCOCC2)CC1` | -54.07 | - | -22.29 | -1.748 |
| 10 | `O=C(O)C(F)(F)F.O=C(c1ccsc1)N1CCC2(CCN(Cc3ccccn3)C2=O)C1` (configuration not stated) | -30.09 | -3.251 | -12.72 | - |
| 11 | `CC(C)C(C)(C#N)NC(=O)Cn1cc(C(N)=O)c(-c2ccccc2)n1` (configuration not stated) | 2.957 | -6.886 | -11.84 | 1.751 |
| 12 | `CC(COc1ccccc1)NCc1cn2ccccc2n1` (configuration not stated) | 28.95 | -21.54 | 1.773 | -1.34 |
| 13 | `Cc1cc(NCCNc2cccnc2)nc(-c2ccccc2O)n1` | 5.898 | 36.12 | 32.4 | 3.387 |
| 14 | `CC(C)(C)c1noc(CN2CCCc3cc(OC(F)(F)F)ccc32)n1` | 10.61 | - | 37.35 | 5.023 |
| 15 | `CN(C)CCn1ccc2ccc(NC(=O)c3ccncc3F)cc21` | 5.936 | -17.73 | 11.4 | 1.267 |
| 16 | `Cc1nnc2n1CCN(Cc1csc(CC(=O)N(C)C)n1)C2` | 4.308 | 1.757 | 7.718 | 7.275 |
| 17 | `Cc1cnn(CCNCc2ccccc2Oc2cccnc2)c1` | -16.93 | -8.132 | 5.938 | -4.089 |
| 18 | `O=S(=O)(c1ccccc1Cl)N1CCCC(c2ncc[nH]2)C1` (configuration not stated) | -6.314 | -29.6 | 26.71 | 4.709 |
| 19 | `CCNC(=O)[C@@H]1C[C@@H](NC(=O)c2cccn2C)CN1CCCSC` | -19.64 | -27.44 | 3.867 | 4.325 |
| 20 | `CNc1ncc(CN(C)c2nc(C3CCCC3)nc3c2cnn3C)cn1` | 15.57 | -22.71 | 11.65 | -3.407 |
| 21 | `CNc1nc(CNC(=O)Nc2cccc(-n3ccc(C)n3)c2)cs1` | 4.612 | - | 14.56 | 0.8305 |
| 22 | `Cc1[nH]nc2ncc(C(=O)N3CCCC3c3noc(C(C)C)n3)cc12` (configuration not stated) | 8.217 | -4.192 | 7.303 | 3.301 |
| 23 | `Cc1ccccc1OCCN1CCN(Cc2cnn(CCO)c2)CC1` | 1.93 | - | 31.45 | -0.5035 |
| 24 | `CCCS(=O)(=O)N1CCCN(CCCOC)CC1` | 29.23 | -57.22 | 5.265 | 2.868 |
| 25 | `CN(CCOc1cccc(S(C)(=O)=O)c1)CC(F)F` | 7.804 | -45.91 | -2.016 | 6.359 |
| 26 | `c1csc(-c2noc(CCCN3CCCC3Cn3cccn3)n2)c1` (configuration not stated) | 2.47 | -0.5746 | 26.39 | 1.806 |
| 27 | `CN1C[C@@H](NC(=O)c2ccccc2)C[C@H]1c1nc(-c2cnccn2)no1` | 5.28 | -5.902 | -21.47 | -2.229 |
| 28 | `Cn1cnc2c1CCN(Cc1cccc(C(=O)N3CCCCC3)c1)C2` | 0.6916 | - | 38.38 | 1.321 |
| 29 | `CC1Cc2ccccc2N1Cc1occc1C(=O)OCC(N)=O` (configuration not stated) | -31.07 | 36.69 | 16.27 | 0.8804 |
| 30 | `O=C(O)C(F)(F)F.O=C(O)C(F)(F)F.[H][C@@]12CCN(C(=O)c3cnn(C)c3)[C@@]1([H])CCN2Cc1ccncc1` | -11.18 | -25.69 | 5.225 | - |
| 31 | `CCc1nnsc1C(=O)N1CCCN(Cc2ccc(C)cc2)CC1` | 4.053 | 14.46 | 15.03 | 13.04 |
| 32 | `CC(C)(CNC(=O)C1CCCCN1S(C)(=O)=O)N1CCOCC1` (configuration not stated) | 0.8409 | -22.77 | -43.07 | 0.5464 |
| 33 | `CO[C@H]1CN(C)S(=O)(=O)[C@@]12CCN(Cc1ccccc1)C2` | 15.78 | -24.39 | -2.955 | 2.135 |
| 34 | `O=C([C@H]1COC[C@H]2CN(CC3CCC3)C[C@H]21)N1CCOCC1` | - | - | - | 6.787 |
| 35 | `COc1cccc(CNc2cc(C)nc(-c3ccncc3)n2)c1OC` | 3.058 | -15.79 | 35.89 | 5.123 |
| 36 | `CCOc1ccc2nc(CN3CCC(CNC(C)=O)C3)ccc2c1` (configuration not stated) | 10.01 | 11.79 | 17.76 | 6.144 |
| 37 | `O=C(C1CCC1)N1C[C@@H](c2ccsc2)[C@@H]2CN(C3CCCCC3)CC[C@@H]21` | - | - | - | -2.777 |
| 38 | `[H][C@@]12COC[C@H](C(=O)N3CCCC3)[C@]1([H])CN(c1ccncn1)C2` | -3.549 | -150.1 | 3.438 | - |
| 39 | `CCC(CNC(=O)Cc1cc(C)on1)Oc1cccc(F)c1` (configuration not stated) | -2.575 | -49.61 | -20.4 | 1.928 |
| 40 | `CC(C)N1CCO[C@H]2CN(C(=O)Cc3cccs3)C[C@H]21` | - | - | - | 1.931 |
| 41 | `CCN(CC)c1ncccc1CNCc1ccc(Cl)s1` | 3.905 | 10.4 | 6.628 | 4.748 |
| 42 | `CCNC(=O)c1ccc2c(c1)nc1n2CCN(C(C)C)C1` | 2.814 | - | 10.47 | -0.2334 |
| 43 | `Cc1cc(C(=O)N2CCNC(=O)C2)c(C)n1CC(F)(F)F` | 2.692 | -63.82 | -18.44 | 2.356 |
| 44 | `COCCn1cnnc1CN(C)c1nc(N)nc2c1CCCC2` | 10.58 | -0.2488 | -57.9 | 2.012 |
| 45 | `COc1ccc(C(C)Nc2cnn(C)c(=O)c2Cl)cc1OC` (configuration not stated) | -26.22 | -8.997 | 21.04 | 3.352 |
| 46 | `[H][C@@]12CCN(C[C@@H]1c1cc(-c3cccs3)nn1C)[C@@H](CNC(=O)COC)C2` | 2.107 | -9.104 | 7.537 | - |
| 47 | `CN(C)[C@H]1CCN(c2ccnc(C(=O)NCc3ccco3)c2)C1` | 0.649 | -133.4 | -14.6 | 4.292 |

6 of the entries, repeated:

| SMILES | Toxoplasma | T. brucei | Leishmania in macrophages | PfKRS1 |
|---|---|---|---|---|
| `Cn1cnc2c1CCN(Cc1cccc(C(=O)N3CCCCC3)c1)C2` | 0.6916 | - | 38.38 | 1.321 |
| `CO[C@H]1CN(C)S(=O)(=O)[C@@]12CCN(Cc1ccccc1)C2` | 15.78 | -24.39 | -2.955 | 2.135 |
| `COc1ccc2c(c1)CCCN(C(=O)NCC1CCCO1)C2` (configuration not stated) | -3.141 | -4.98 | 6.687 | 2.152 |
| `CCS(=O)(=O)N1Cc2nccn2CC(Cn2cncn2)C1` (configuration not stated) | 13.25 | -52.63 | 17.11 | 6.188 |
| `CC(C)(CNC(=O)C1CCCCN1S(C)(=O)=O)N1CCOCC1` (configuration not stated) | 0.8409 | -22.77 | -43.07 | 0.5464 |
| `Cc1[nH]nc2ncc(C(=O)N3CCCC3c3noc(C(C)C)n3)cc12` (configuration not stated) | 8.217 | -4.192 | 7.303 | 3.301 |

Source: ChEMBL document CHEMBL3988442, “University of Dundee, Small-Polar-MMV Screening Library” (2021).